Test results: publication doi:10.1101/2025.07.02.662750
Positions count from the first letter of the chain named. No constants are given. Whether binding was seen depends on the method and setting. In cells and extracts the contact can be indirect. Some results given as binding are weak or reduced against the parent protein; the word gives no strength. For some assays here: Tags and fused reporters may be left off the sequences shown.

Amino acid sequences for entries named in this document (tags omitted). Residues count along the entry.
UniProt P56703, residues 22-355: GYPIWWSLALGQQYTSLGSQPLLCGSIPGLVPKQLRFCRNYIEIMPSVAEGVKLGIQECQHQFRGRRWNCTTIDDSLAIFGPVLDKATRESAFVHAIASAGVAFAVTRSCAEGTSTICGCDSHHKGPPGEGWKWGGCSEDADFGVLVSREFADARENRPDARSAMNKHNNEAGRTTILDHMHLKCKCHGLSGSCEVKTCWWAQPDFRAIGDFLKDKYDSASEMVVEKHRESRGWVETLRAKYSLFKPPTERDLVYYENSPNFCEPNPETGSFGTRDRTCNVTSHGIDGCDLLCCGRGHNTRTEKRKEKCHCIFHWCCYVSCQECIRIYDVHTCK

Legend:
Assay in all cases: co-IP
Wnt11 = target: T1, Wnt11 (UniProt O96014)
T1 sequence: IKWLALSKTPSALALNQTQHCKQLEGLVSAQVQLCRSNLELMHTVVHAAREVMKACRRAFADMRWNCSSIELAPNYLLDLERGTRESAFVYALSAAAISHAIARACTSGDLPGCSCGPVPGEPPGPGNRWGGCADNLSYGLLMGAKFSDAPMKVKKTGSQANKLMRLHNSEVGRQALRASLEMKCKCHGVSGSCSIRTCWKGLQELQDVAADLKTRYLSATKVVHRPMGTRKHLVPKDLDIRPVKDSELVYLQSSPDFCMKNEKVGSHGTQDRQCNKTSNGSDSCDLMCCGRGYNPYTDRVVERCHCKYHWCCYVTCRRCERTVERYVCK

Wnt3 = Wnt3 (UniProt P56703)
Wnt11^N40Q = target: T2, Wnt11^N40Q (UniProt O96014)
T2 sequence: T1 sequence with N16Q

Wnt11-V5 = target: T3, Wnt11-V5 (UniProt O96014)
T3 sequence: T1 sequence

B1: FZD6 (receptor, UniProt O60353 19-706)
chain: HSLFTCEPITVPRCMKMAYNMTFFPNLMGHYDQSIAAVEMEHFLPLANLECSPNIETFLCKAFVPTCIEQIHVVPPCRKLCEKVYSDCKKLIDTFGIRWPEELECDRLQYCDETVPVTFDPHTEFLGPQKKTEQVQRDIGFWCPRHLKTSGGQGYKFLGIDQCAPPCPNMYFKSDELEFAKSFIGTVSIFCLCATLFTFLTFLIDVRRFRYPERPIIYYSVCYSIVSLMYFIGFLLGDSTACNKADEKLELGDTVVLGSQNKACTVLFMLLYFFTMAGTVWWVILTITWFLAAGRKWSCEAIEQKAVWFHAVAWGTPGFLTVMLLAMNKVEGDNISGVCFVGLYDLDASRYFVLLPLCLCVFVGLSLLLAGIISLNHVRQVIQHDGRNQEKLKKFMIRIGVFSGLYLVPLVTLLGCYVYEQVNRITWEITWVSDHCRQYHIPCPYQAKAKARPELALFMIKYLMTLIVGISAVFWVGSKKTCTEWAGFFKRNRKRDPISESRRVLQESCEFFLKHNSKVKHKKKHYKPSSHKLKVISKSMGTSTGATANHGTSAVAITSHDYLGQETLTEIQTSPETSMREVKADGASTPRLREQDCGEPASPAASISRLSGEQVDGKGQAGSVSESARSEGRISPKSDITDTGLAQSNNLQVPSSSEPSSLKGSTSLLVHPVSGVRKEQGGGCHSDT
For B1, the binding (Wnt11) was “binds”.

B2: Evi/Wls (receptor, UniProt Q5T9L3 1-541)
chain: MAGAIIENMSTKKLCIVGGILLVFQIIAFLVGGLIAPGPTTAVSYMSVKCVDARKNHHKTKWFVPWGPNHCDKIRDIEEAIPREIEANDIVFSVHIPLPHMEMSPWFQFMLFILQLDIAFKLNNQIRENAEVSMDVSLAYRDDAFAEWTEMAHERVPRKLKCTFTSPKTPEHEGRYYECDVLPFMEIGSVAHKFYLLNIRLPVNEKKKINVGIGEIKDIRLVGIHQNGGFTKVWFAMKTFLTPSIFIIMVWYWRRITMMSRPPVLLEKVIFALGISMTFINIPVEWFSIGFDWTWMLLFGDIRQGIFYAMLLSFWIIFCGEHMMDQHERNHIAGYWKQVGPIAVGSFCLFIFDMCERGVQLTNPFYSIWTTDIGTELAMAFIIVAGICLCLYFLFLCFMVFQVFRNISGKQSSLPAMSKVRRLHYEGLIFRFKFLMLITLACAAMTVIFFIVSQVTEGHWKWGGVTVQVNSAFFTGIYGMWNLYVFALMFLYAPSHKNYGEDQSNGDLGVHSGEELQLTTTITHVDGPTEIYKLTRKEAQE
For B2, the binding (Wnt3) was “binds”, the binding (Wnt11^N40Q) was “binds” and the binding (Wnt11) was “binds”. The binding (Wnt11-V5) was “binds”.
